The supplement of paper PMC6658780
Structures can show the parent of a compound that is named as a salt. ± gives the standard deviation of the averaged measurements. This is one part of the list. This data set is noisy: repeats of one test often differ as much as different tests do.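 The A. baumannii strains are clinical isolates chosen because they resist the partner antibiotic, and the screen looks for drugs that restore that antibiotic's effect. The reading at the start of incubation is subtracted to remove background from coloured compounds.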

system: Acinetobacter baumannii WP-487; assay: percent growth inhibition of drug alone vs DMSO control; higher = more growth inhibition; conditions: antibiotic (0.125x MIC): none (0.1% DMSO); 7 µM
Procedure: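 Prestwick drugs tested at 20 uM and 7 uM with an antibiotic at 0.125x MIC (16 mg/L when MIC >128 mg/L) in cation-adjusted Mueller-Hinton broth, 384-well plates, duplicate runs on different days. Percent growth inhibition was computed from OD600 (24 h minus 0 h) relative to DMSO-only wells. Drug + 0.1% DMSO (no antibiotic) wells are also given. Only hits (max corrected inhibition > mean + 3SD) are listed. A. baumannii: NCTC-13301 was used for MEM/CIP/GEN/TGC and WP-487 for colistin. Duplicates with colistin are strongly discordant (run 2 near 100% for most drugs).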

SMILES | percent growth inhibition of drug alone
Oc1c(I)cc(Cl)c2cccnc12 [Clioquinol] | 17.6 ± 34%
C#Cc1cccc(Nc2ncnc3cc(OCCOC)c(OCCOC)cc23)c1 [Erlotinib] | 4.71 ± 3.5%
Cc1ccnc(NS(=O)(=O)c2ccc(N)cc2)n1 [Sulfamerazine] | 47.8 ± 57%
CC(C)C(=O)OCC(=O)[C@@]12O[C@H](C3CCCCC3)O[C@@H]1C[C@H]1[C@@H]3CCC4=CC(=O)C=C[C@]4(C)[C@H]3[C@@H](O)C[C@@]12C [Ciclesonide] | 1.88 ± 5.1%
CN(Cc1cc(Br)cc(Br)c1N)C1CCCCC1 [Bromhexine hydrochloride] | 11 ± 10%
COC(=O)[C@H]1[C@H]2C[C@@H]3c4[nH]c5cc(OC)ccc5c4CCN3C[C@H]2C[C@@H](OC(=O)c2cc(OC)c(OC)c(OC)c2)[C@@H]1OC [Reserpine] | 4.46 ± 1.7%
CCSc1ccc2c(c1)N(CCCN1CCN(C)CC1)c1ccccc1S2 [Thiethylperazine dimalate] | -0.284 ± 8%
CC(C)(C)C(=O)OCOC(=O)[C@@H]1N2C(=O)[C@@H](/N=C/N3CCCCCC3)[C@H]2SC1(C)C [Pivmecillinam hydrochloride] | 38.8 ± 39%
O=C1CN(/N=C/c2ccc([N+](=O)[O-])o2)C(=O)N1 [Nitrofurantoin] | -0.502 ± 7.5%
COc1cnc(NS(=O)(=O)c2ccc(N)cc2)nc1 [Sulfameter] | 9.61 ± 6.5%
CN[C@@H]1[C@@H](O[C@H]2O[C@H](CO)[C@@H](N)[C@H](O)[C@H]2O)OC2C[C@@H](N)[C@@H](O[C@H]3[C@H](O)[C@@H](O)[C@H](N)C[C@@H]3N)OC2[C@@H]1O (stereo not given in full) [Apramycin] | 8.33 ± 5.8%
CSc1ccc2c(c1)C(N1CCN(C)CC1)Cc1ccccc1S2 (stereo not given) [Methiothepin maleate] | 6.31 ± 2%
C=C1/C(=C\C=C2/CCC[C@]3(C)[C@@H]([C@H](C)/C=C/[C@@H](O)C4CC4)CC[C@@H]23)C[C@@H](O)C[C@@H]1O [Calcipotriene] | -3.83 ± 9.9%
CC[C@H]1OC(=O)C[C@@H](O)[C@H](C)[C@@H](O[C@@H]2O[C@H](C)[C@@H](O[C@H]3C[C@@](C)(O)[C@@H](O)[C@H](C)O3)[C@H](N(C)C)[C@H]2O)[C@@H](CC=O)C[C@@H](C)C(=O)/C=C/C(C)=C/[C@@H]1CO[C@@H]1O[C@H](C)[C@@H](O)[C@@H](OC)[C@H]1OC [Tylosin] | 9.65 ± 4.2%
CS(=O)(=O)c1ccc([C@@H](O)[C@@H](CF)NC(=O)C(Cl)Cl)cc1 [Florfenicol] | 9.22 ± 4.8%
C1CCC(C(CC2CCCCN2)C2CCCCC2)CC1 (stereo not given) [Perhexiline maleate] | 0.0517 ± 4.6%
O=c1[nH]c(=O)n([C@H]2C[C@H](O)[C@@H](CO)O2)cc1F [Floxuridine] | -0.0189 ± 8%
CSc1ccc2c(c1)N(CCC1CCCCN1C)c1ccccc1S2 (stereo not given) [Thioridazine hydrochloride] | 8.35 ± 3.5%
CN1CCN(CCCN2c3ccccc3Sc3ccc(Cl)cc32)CC1 [Prochlorperazine dimaleate] | 1.58 ± 3.5%
CCCC(C(=O)OCCN(CC)CC)(c1ccccc1)c1ccccc1 [Proadifen hydrochloride] | -0.305 ± 6%

same assay, conditions: antibiotic (0.125x MIC): none (0.1% DMSO); 20 µM

SMILES | percent growth inhibition of drug alone
Oc1c(I)cc(Cl)c2cccnc12 [Clioquinol] | 99.98 ± 0.11%
C#Cc1cccc(Nc2ncnc3cc(OCCOC)c(OCCOC)cc23)c1 [Erlotinib] | -0.044 ± 3%
Cc1ccnc(NS(=O)(=O)c2ccc(N)cc2)n1 [Sulfamerazine] | 60.7 ± 53%
CC(C)C(=O)OCC(=O)[C@@]12O[C@H](C3CCCCC3)O[C@@H]1C[C@H]1[C@@H]3CCC4=CC(=O)C=C[C@]4(C)[C@H]3[C@@H](O)C[C@@]12C [Ciclesonide] | 5.26 ± 3.1%
CN(Cc1cc(Br)cc(Br)c1N)C1CCCCC1 [Bromhexine hydrochloride] | 10.3 ± 12%
COC(=O)[C@H]1[C@H]2C[C@@H]3c4[nH]c5cc(OC)ccc5c4CCN3C[C@H]2C[C@@H](OC(=O)c2cc(OC)c(OC)c(OC)c2)[C@@H]1OC [Reserpine] | 1.66 ± 6%
CCSc1ccc2c(c1)N(CCCN1CCN(C)CC1)c1ccccc1S2 [Thiethylperazine dimalate] | 7.9 ± 9.1%
CC(C)(C)C(=O)OCOC(=O)[C@@H]1N2C(=O)[C@@H](/N=C/N3CCCCCC3)[C@H]2SC1(C)C [Pivmecillinam hydrochloride] | 46.4 ± 52%
O=C1CN(/N=C/c2ccc([N+](=O)[O-])o2)C(=O)N1 [Nitrofurantoin] | -2.63 ± 2.2%
COc1cnc(NS(=O)(=O)c2ccc(N)cc2)nc1 [Sulfameter] | 53.1 ± 59%
CN[C@@H]1[C@@H](O[C@H]2O[C@H](CO)[C@@H](N)[C@H](O)[C@H]2O)OC2C[C@@H](N)[C@@H](O[C@H]3[C@H](O)[C@@H](O)[C@H](N)C[C@@H]3N)OC2[C@@H]1O (stereo not given in full) [Apramycin] | 28.8 ± 34%
CSc1ccc2c(c1)C(N1CCN(C)CC1)Cc1ccccc1S2 (stereo not given) [Methiothepin maleate] | -0.982 ± 5.6%
C=C1/C(=C\C=C2/CCC[C@]3(C)[C@@H]([C@H](C)/C=C/[C@@H](O)C4CC4)CC[C@@H]23)C[C@@H](O)C[C@@H]1O [Calcipotriene] | -1.44 ± 1.2%
CC[C@H]1OC(=O)C[C@@H](O)[C@H](C)[C@@H](O[C@@H]2O[C@H](C)[C@@H](O[C@H]3C[C@@](C)(O)[C@@H](O)[C@H](C)O3)[C@H](N(C)C)[C@H]2O)[C@@H](CC=O)C[C@@H](C)C(=O)/C=C/C(C)=C/[C@@H]1CO[C@@H]1O[C@H](C)[C@@H](O)[C@@H](OC)[C@H]1OC [Tylosin] | 2.69 ± 0.62%
CS(=O)(=O)c1ccc([C@@H](O)[C@@H](CF)NC(=O)C(Cl)Cl)cc1 [Florfenicol] | 59.4 ± 34%
C1CCC(C(CC2CCCCN2)C2CCCCC2)CC1 (stereo not given) [Perhexiline maleate] | -2.93 ± 0.15%
O=c1[nH]c(=O)n([C@H]2C[C@H](O)[C@@H](CO)O2)cc1F [Floxuridine] | 1.05 ± 3.6%
CSc1ccc2c(c1)N(CCC1CCCCN1C)c1ccccc1S2 (stereo not given) [Thioridazine hydrochloride] | 4.22 ± 4.2%
CN1CCN(CCCN2c3ccccc3Sc3ccc(Cl)cc32)CC1 [Prochlorperazine dimaleate] | -2.73 ± 1.3%
CCCC(C(=O)OCCN(CC)CC)(c1ccccc1)c1ccccc1 [Proadifen hydrochloride] | 1.77 ± 4.8%
